Values from PubChem BioAssay AID1671195 (Yale University, 2021)

Screen: 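Genes whose knockdown alters LDL uptake in liver cancer cells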 (primary screen)
Cells: human Huh7 hepatoma cells
Reagents: siRNA pool against human genes, 18 nM
Time to read-out: about 2 to 2.5 days of knockdown, then 8 h LDL uptake
Treatment: DiI-labelled LDL at 30 µg/ml for 8 h, in lipoprotein-deficient serum medium
Detection: 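Fluorescent LDL signal imaged in cells, scaled to the plate median, robust z-score for each replicate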
Direction: robust z-score: higher = more LDL uptake after knockdown
Rule for the call: 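Active when two or more replicates show a robust z-score above 2 or below -2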
Shown is one part, drawn at random, of about 22,000 reagents tested. About 1,510 of them (6.9%) were called active. 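Active includes knockdowns raising or lowering LDL uptake; positive z-scores mean more uptake, negative mean less.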

gene knocked down	robust z-score, replicate 1	robust z-score, replicate 2	robust z-score, replicate 3	call
PCDHGA10 (protocadherin gamma subfamily A, 10)	-0.365	-0.0128	-0.104	inactive
SUGP2 (SURP and G-patch domain containing 2)	1.13	0.756	0.829	inactive
RARRES2 (retinoic acid receptor responder 2)	2.44	1.92	1.64	active
ACSM3 (acyl-CoA synthetase medium chain family member 3)	0.444	0.183	0.549	inactive
LRR1 (leucine rich repeat protein 1)	-1.29	-0.906	-1.07	inactive
SLC38A1	1.38	1.48	1.29	inactive
MCTS1 (MCTS1 re-initiation and release factor)	1.3	1.59	1.42	inactive
HMGCS2 (3-hydroxy-3-methylglutaryl-CoA synthase 2)	-1.42	0.96	-1.87	inactive
UNC93B1 (unc-93B1 regulator of TLR signaling)	3.15	3.51	2.85	active
SPINK1 (serine peptidase inhibitor Kazal type 1)	-2.18	-1.9	-2.15	active
LOC390736 (retired record)	-0.259	0.0413	0.17	inactive
CMAS (cytidine monophosphate N-acetylneuraminic acid synthetase)	1.56	1.6	2.89	inactive
NAV2 (neuron navigator 2)	-0.656	-0.671	-0.902	inactive
LOC284912	0.474	0.993	0.973	inactive
HMX1 (H6 family homeobox 1)	-0.0882	0.186	-0.0276	inactive
LOC728329	-0.954	-0.376	-0.775	inactive
EGFL8 (EGF like domain multiple 8)	0.648	0.134	0.169	inactive
DLX6 (distal-less homeobox 6)	0.789	0.994	0.787	inactive
DEFB115 (defensin beta 115)	1.14	-0.0642	-0.15	inactive
PDPN (podoplanin)	-0.761	-1.29	0.199	inactive
TICAM1 (TIR domain containing adaptor molecule 1)	-1.11	-0.652	-1.37	inactive
PDHA2 (pyruvate dehydrogenase E1 subunit alpha 2)	-1.6	-1.43	-1.77	inactive
ELOA2 (elongin A2)	1.79	0.159	1.84	inactive
LNPEP (leucyl and cystinyl aminopeptidase)	-0.493	-0.204	-0.211	inactive
ICAM5 (intercellular adhesion molecule 5)	0.842	-0.589	-0.516	inactive
TSSK2 (testis specific serine kinase 2)	1.78	0.606	0.052	inactive
AKR7L (aldo-keto reductase family 7 like (gene/pseudogene))	0.229	0.141	0.159	inactive
MS4A8 (membrane spanning 4-domains A8)	1.51	0.967	0.648	inactive
OR4K15 (olfactory receptor family 4 subfamily K member 15)	-0.434	0.223	-0.0539	inactive

Next part (5 carried over from the part before).
gene knocked down	robust z-score, replicate 1	robust z-score, replicate 2	robust z-score, replicate 3	call
ICAM5 (intercellular adhesion molecule 5)	0.842	-0.589	-0.516	inactive
TSSK2 (testis specific serine kinase 2)	1.78	0.606	0.052	inactive
AKR7L (aldo-keto reductase family 7 like (gene/pseudogene))	0.229	0.141	0.159	inactive
MS4A8 (membrane spanning 4-domains A8)	1.51	0.967	0.648	inactive
OR4K15 (olfactory receptor family 4 subfamily K member 15)	-0.434	0.223	-0.0539	inactive
MORF4 (mortality factor 4 (pseudogene))	-1.58	0.231	-0.914	inactive
USP24 (ubiquitin specific peptidase 24)	1.19	0.226	0.823	inactive
ZNF213 (zinc finger protein 213)	-0.637	-0.0885	-0.161	inactive
LOC440844 (retired record)	-2.84	-0.711	-0.618	inactive
PRRG2 (proline rich and Gla domain 2)	-0.517	0.0142	-0.648	inactive
SORBS3 (sorbin and SH3 domain containing 3)	-0.393	-0.64	0.0348	inactive
LINC01548 (long independently transcribed non-coding RNA 1548)	-0.181	-0.406	-0.433	inactive
LOC401053 (retired record)	0.878	0.437	-0.131	inactive
DUSP15 (dual specificity phosphatase 15)	-0.553	0.11	-0.643	inactive
ST3GAL6 (ST3 beta-galactoside alpha-2,3-sialyltransferase 6)	-0.447	-0.625	-0.0641	inactive
LOC440197 (retired record)	0.0239	-0.429	-0.39	inactive
SMAD2 (SMAD family member 2)	1.41	0.966	1.95	inactive
RNF149 (ring finger protein 149)	0.0214	-0.316	-0.374	inactive
RASSF6 (Ras association domain family member 6)	-0.192	-0.182	0.477	inactive
ZNF205-AS1 (ZNF205 antisense RNA 1)	0.831	0.4	0.594	inactive
ACOX1 (acyl-CoA oxidase 1)	-0.662	-0.2	0.114	inactive
SULT4A1 (sulfotransferase family 4A member 1)	1.24	0.989	0.456	inactive
NPAT (nuclear protein, coactivator of histone transcription)	0.138	-0.498	0.712	inactive
TTLL2 (tubulin tyrosine ligase like 2)	-0.522	-0.79	-0.451	inactive
DAO (D-amino acid oxidase)	-0.618	-0.0299	-0.551	inactive
HDHD2 (haloacid dehalogenase like hydrolase domain containing 2)	-0.695	-1.04	-0.321	inactive
LOC389172 (retired record)	2.39	1.62	0.91	inactive
HNRNPH1 (heterogeneous nuclear ribonucleoprotein H1)	-0.448	-0.366	-0.582	inactive
OTULINL (OTU deubiquitinase with linear linkage specificity like)	-0.521	-1.08	-0.533	inactive
IMMT (inner membrane mitochondrial protein)	-1.01	-0.148	-0.508	inactive
ATP8B2 (ATPase phospholipid transporting 8B2)	-0.0256	0.518	-0.242	inactive
RAB34 (RAB34, member RAS oncogene family)	0.143	2.31	1.44	inactive
CYTH2 (cytohesin 2)	0.567	0.713	0.396	inactive
MAP4K5 (mitogen-activated protein kinase kinase kinase kinase 5)	-1.38	-2.07	-2.49	active
LRRC4C (leucine rich repeat containing 4C)	0.0468	-0.54	-0.356	inactive
LCE1C (late cornified envelope 1C)	1.96	1.89	1.48	inactive
HRH2 (histamine receptor H2)	-1.52	-1.96	-1.7	inactive
RSBN1L (round spermatid basic protein 1 like)	-0.456	0.274	0.47	inactive
CLDN9 (claudin 9)	-0.742	-0.353	-0.573	inactive
PYCARD (PYD and CARD domain containing)	-0.533	0.46	-0.596	inactive
LINS1 (lines homolog 1)	0.666	0.129	2.01	inactive
PIEZO1	-1	-1.53	0.38	inactive
NTF4 (neurotrophin 4)	-0.167	0.324	-0.415	inactive
CDH8 (cadherin 8)	-0.345	-0.56	-0.506	inactive
KLRC4 (killer cell lectin like receptor C4)	-0.136	-0.521	0.204	inactive
RAP1GDS1 (Rap1 GTPase-GDP dissociation stimulator 1)	-0.792	-1.15	-0.252	inactive
FGD4 (FYVE, RhoGEF and PH domain containing 4)	-0.542	0.271	-0.506	inactive
H1-0 (H1.0 linker histone)	0.443	1.2	0.721	inactive
LOC728114	0.0282	-0.103	-0.326	inactive
OR5M11 (olfactory receptor family 5 subfamily M member 11)	-0.52	-0.117	-0.293	inactive
NETO1 (neuropilin and tolloid like 1)	-1.02	-1.64	-1.73	inactive
ZNF554 (zinc finger protein 554)	-0.723	-1.02	-0.805	inactive
HSD3BP4 (hydroxy-delta-5-steroid dehydrogenase, 3 beta, pseudogene 4)	-1.04	-0.69	0.176	inactive
TRMT1L (tRNA methyltransferase 1L)	-0.0938	0.119	-0.424	inactive
SULT1C4 (sulfotransferase family 1C member 4)	-0.588	-0.712	-0.499	inactive
TNFSF13B (TNF superfamily member 13b)	-0.283	-1.11	0.225	inactive
CDO1 (cysteine dioxygenase type 1)	-1.2	-1.18	-1.37	inactive
FBXO28 (F-box protein 28)	0.545	1.08	1.85	inactive
ZNF44 (zinc finger protein 44)	-0.114	0.0119	0.532	inactive
MEIOSIN (meiosis initiator)	-0.48	-0.374	-0.22	inactive
LOC389331 (retired record)	0.973	1.25	1.6	inactive
NNT (nicotinamide nucleotide transhydrogenase)	1.57	0.755	0.918	inactive
PPHLN1 (periphilin 1)	-0.671	0.719	-0.654	inactive
